Consider 2 substances from article doi:10.1101/2021.02.18.431817.

No constants are given. Whether binding was seen depends on the method and setting. Binding seen in cells or lysates may run through a third protein. Binding calls can cover weak binding; strength is not graded here. Where a sequence is shown, tags or fusion partners need not be part of it.

In one assay the target is T1, OsSAP9:YFP (rice) (UniProt Q7Y1W9).
T1 sequence: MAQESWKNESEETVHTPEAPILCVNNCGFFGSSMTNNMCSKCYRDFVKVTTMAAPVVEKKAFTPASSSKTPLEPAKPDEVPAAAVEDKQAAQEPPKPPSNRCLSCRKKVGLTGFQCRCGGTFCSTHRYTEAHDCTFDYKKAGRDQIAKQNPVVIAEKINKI
Nature of the assay: FRET or BRET.

The target of a further assay is T2, OsSAP8:YFP (rice) (UniProt A3BDI8).
T2 sequence: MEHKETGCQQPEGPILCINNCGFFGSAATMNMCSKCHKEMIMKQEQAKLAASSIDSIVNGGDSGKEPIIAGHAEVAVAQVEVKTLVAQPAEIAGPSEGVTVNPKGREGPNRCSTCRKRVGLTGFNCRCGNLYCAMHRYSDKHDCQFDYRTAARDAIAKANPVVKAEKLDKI
Nature of the assay: FRET or BRET. In general terms: Bioluminescence resonance energy transfer reports proximity on the nanometre scale.

Regarding OsCML49a:CFP (rice), the binding result in the assay with OsSAP9:YFP (rice) and with OsSAP8:YFP (rice) was “binds” throughout.

With OsCML49b:CFP (rice), the binding entry with OsSAP9:YFP (rice) and with OsSAP8:YFP (rice) was “binds” each time.
